Source: patent US20210139592A1
Results are given in words; binding and its absence hold for the method and conditions named. Binding calls can cover weak binding; strength is not graded here.

Assays:
human PD-L1 (human) [1] = test: ELISA, PD-L1 coated, anti-mouse IgG-HRP (FIG. 3A)
human PD-L1 (human) [2] = test: binding to wild-type PD-L1 in the site-directed mutagenesis mapping

Binder | binding (human PD-L1 (human) [1]) | binding (human PD-L1 (human) [2])
mouse hybridoma anti-human PD-L1 antibody 1E12 (antibody, V domains shown) VH: QVQLQQPGAELVKPGASVKLSCKASGYIFISFWIHWVKQRPGQGLEWIGNIDPSDSETHYNEKFRDKASLTVDKSSSTAYMQLSSLTSEDSAVYFCARLDGDYGRAYWGQGTLVTVSA VL: NIVLTQSPASLAVSLGQRATISCRASESVDSFGNSFMHWYQQKPGQPPKLLIYLASNLESGVPARFSGSGSRTDFTLTIDPVEADDTATYYCQQNNEDPLTFGGGTKLEIKR | binds | binds
mouse hybridoma anti-human PD-L1 antibody 3F11 (antibody, V domains shown) VH: QVQLQQPGAELVKPGASVKLSCKASGYIFISFWIHWVKQRPGQGLEWIGNIDPSDSETHYNEKFRDKASLTVDKSSSTAYMQLSSLTSEDSAVYFCARLDGDYGRAYWGQGTLVTVSA VL: NIALTQSPTSLAVSQGQRATISCRASESVDSNGNSFMHWYQQKPGQPPKLLIYLASNLESGVPARFSGSGSRTDFTLTIDPVEADDAATYYCQQNNDDPWTFGGGTKLEIKR | binds | binds

Continued, in another order:

binding (human PD-L1 (human) [1]) | Binder | binding (human PD-L1 (human) [2])
binds | mouse hybridoma anti-human PD-L1 antibody 3E10 (antibody, V domains shown) VH: QVQLQQSGPELVKPGASVKISCKASGYAFSTSWINWLKQRPGEGLEWLGRIYPGDGDINYNGKFKDKATLTADKSSSTAHIQLNSLTSEDSAVYFCARSNHYYFDFWGQGTTLTVSS VL: DVQMTQTTSSLSASLGDRVTINCRASEDIRTYLNWYQQKPDGTIKLLIYYTSRLHSGVPSRFSGSGSGTDYSLTISNLDQEDIATYFCQQVHTLPPWTFGGGTKLEIKR | binds
binds | mouse hybridoma anti-human PD-L1 antibody 5E6 (antibody, V domains shown) VH: EVQLVESGGGFVKPGGSRKLSCAASGFTFSDSGMHWVRQAPEKGLEWVAYISAGSYTIYYADIVKGRFTISRDSAKNTLFLQMTSLRSEDTAIYYCARGDWYFAVWGAGTTVTVSS VL: DVLMTQTPLSLPVSLGDQASISCRSSQSLVHINGNTYLEWYLQKPGQSPKLLIYKVSNRFSGVPDRFSGSGSGTDFTLKISRVEPEDLGVYYCSQGSHVPWTFGGGTKVEIKR | binds
